The text below walks through data of PMC11827841.

By UniProt entry, the sequences of proteins in these tests, tags left out. Residues count along the entry.
UniProt Q6YHK3, residues 22-1420: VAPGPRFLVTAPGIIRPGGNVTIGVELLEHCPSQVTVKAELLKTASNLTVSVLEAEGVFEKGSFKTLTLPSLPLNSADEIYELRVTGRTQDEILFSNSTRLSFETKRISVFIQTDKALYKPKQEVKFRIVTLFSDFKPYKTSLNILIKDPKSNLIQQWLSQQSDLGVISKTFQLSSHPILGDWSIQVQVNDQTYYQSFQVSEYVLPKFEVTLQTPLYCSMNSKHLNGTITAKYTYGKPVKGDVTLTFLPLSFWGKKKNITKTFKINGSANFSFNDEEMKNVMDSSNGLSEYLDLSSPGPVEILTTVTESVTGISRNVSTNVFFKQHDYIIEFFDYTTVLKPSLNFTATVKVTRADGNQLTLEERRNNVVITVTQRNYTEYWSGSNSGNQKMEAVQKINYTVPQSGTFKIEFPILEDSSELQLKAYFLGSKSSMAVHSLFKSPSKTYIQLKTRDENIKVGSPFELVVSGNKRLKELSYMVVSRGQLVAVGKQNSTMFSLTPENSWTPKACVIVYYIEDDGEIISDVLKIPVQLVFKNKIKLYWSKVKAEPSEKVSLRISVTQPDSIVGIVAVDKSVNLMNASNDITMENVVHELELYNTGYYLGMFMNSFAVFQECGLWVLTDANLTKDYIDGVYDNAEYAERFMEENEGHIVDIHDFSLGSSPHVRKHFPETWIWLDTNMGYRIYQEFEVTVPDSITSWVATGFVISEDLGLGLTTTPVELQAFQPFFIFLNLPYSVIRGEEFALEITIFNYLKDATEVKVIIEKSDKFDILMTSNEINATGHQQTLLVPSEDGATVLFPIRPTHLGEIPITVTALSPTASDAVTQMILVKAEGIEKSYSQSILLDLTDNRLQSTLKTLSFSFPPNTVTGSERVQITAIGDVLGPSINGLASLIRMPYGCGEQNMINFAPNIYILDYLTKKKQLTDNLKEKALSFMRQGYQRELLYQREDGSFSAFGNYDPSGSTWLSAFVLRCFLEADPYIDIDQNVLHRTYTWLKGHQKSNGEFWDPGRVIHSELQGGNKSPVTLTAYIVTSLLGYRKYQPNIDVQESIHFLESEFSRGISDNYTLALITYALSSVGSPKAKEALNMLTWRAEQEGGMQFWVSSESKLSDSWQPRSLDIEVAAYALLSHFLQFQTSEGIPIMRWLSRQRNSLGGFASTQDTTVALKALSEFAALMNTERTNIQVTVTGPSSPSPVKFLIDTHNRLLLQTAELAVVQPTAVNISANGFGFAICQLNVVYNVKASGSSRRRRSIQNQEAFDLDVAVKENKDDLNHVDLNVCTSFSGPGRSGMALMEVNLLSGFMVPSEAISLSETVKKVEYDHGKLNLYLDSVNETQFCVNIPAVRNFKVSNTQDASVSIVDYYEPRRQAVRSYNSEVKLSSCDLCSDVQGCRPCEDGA
UniProt F5HB81, residues 27-845: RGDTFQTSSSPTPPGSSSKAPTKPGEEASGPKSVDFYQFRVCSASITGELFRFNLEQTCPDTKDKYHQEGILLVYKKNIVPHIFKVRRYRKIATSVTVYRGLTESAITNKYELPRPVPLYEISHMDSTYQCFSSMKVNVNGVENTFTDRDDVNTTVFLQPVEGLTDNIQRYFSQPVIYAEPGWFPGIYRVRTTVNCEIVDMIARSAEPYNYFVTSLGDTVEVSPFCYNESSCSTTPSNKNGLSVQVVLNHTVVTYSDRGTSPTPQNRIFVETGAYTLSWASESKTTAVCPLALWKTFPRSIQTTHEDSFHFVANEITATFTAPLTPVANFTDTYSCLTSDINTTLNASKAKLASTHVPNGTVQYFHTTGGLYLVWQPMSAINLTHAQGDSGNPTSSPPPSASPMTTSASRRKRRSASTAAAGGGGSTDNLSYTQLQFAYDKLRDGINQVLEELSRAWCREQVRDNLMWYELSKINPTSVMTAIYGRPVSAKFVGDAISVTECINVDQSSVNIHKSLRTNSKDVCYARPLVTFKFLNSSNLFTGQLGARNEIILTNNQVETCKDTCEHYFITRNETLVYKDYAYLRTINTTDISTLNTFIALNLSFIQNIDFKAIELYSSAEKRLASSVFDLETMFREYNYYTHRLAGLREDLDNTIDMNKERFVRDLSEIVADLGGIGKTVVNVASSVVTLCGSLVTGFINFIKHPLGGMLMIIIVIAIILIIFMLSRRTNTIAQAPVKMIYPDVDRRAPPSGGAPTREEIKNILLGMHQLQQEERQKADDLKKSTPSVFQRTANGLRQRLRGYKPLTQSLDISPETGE

For this test, the target named is 3xFLAG-CD109 (human) (UniProt Q6YHK3). The test can be described thus: co-IP; HEK-293T cells cotransfected with 3xFLAG-CD109 and tagged KSHV glycoproteins for 24 hours; 500 ug lysate on anti-FLAG magnetic agarose beads, room temperature 20 minutes, eluted with 0.1 M glycine pH 2.8; immunoblot. In general terms: In western blotting, separated proteins are transferred to a membrane and probed.

These are yes or no findings as the source states them, for the method shown. In cells and extracts the contact can be indirect.

“KSHV glycoprotein gB-3xHA (from UniProt F5HB81 27-845)”: the binding result was “no binding”.
